Test [1] addresses T1, AtEDEM2/MNS4, fusion protein from the pVYCE vector (Arabidopsis) (UniProt Q9FG93).
T1 sequence: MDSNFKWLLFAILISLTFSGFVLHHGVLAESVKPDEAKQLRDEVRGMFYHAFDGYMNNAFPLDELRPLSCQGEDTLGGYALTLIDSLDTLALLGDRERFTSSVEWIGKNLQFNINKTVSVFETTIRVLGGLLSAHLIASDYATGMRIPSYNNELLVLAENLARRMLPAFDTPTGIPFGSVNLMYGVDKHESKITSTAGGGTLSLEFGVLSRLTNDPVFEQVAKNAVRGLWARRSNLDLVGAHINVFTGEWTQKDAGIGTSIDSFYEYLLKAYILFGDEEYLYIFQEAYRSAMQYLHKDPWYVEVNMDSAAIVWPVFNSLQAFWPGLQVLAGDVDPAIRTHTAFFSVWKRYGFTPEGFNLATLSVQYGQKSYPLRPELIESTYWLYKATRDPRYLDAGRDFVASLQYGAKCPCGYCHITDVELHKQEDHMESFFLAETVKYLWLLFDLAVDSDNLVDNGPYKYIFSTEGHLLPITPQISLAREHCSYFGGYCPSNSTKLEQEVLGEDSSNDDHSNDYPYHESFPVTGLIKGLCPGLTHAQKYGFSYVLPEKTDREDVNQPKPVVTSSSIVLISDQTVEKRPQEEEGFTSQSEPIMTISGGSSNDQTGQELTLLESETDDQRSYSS
The experiment in a line: split reporter.

In test [2] the target is T1, AtEDEM2/MNS4, fusion protein from the pVYCE vector (Arabidopsis). The experiment in a line: co-IP.

These are yes or no findings as the source states them, for the method shown. In cells and extracts the contact can be indirect. Some binding calls cover weakened binding; strength is not graded here. Tags and fused reporters may be left off the sequences shown.

B1: TU…-INDUCED1 (TIN1), fusion protein from the pVYNE vector (protein, UniProt Q84JN2 26-424)
chain: LISSPDANPPYPKAISDLKESIVKGLGFQSEEVKVSGFDIRDALVGHSVSYEFDLEIDNKVLPFKLLEDVNRWEYVDLPIFQVEQPSENGLVPMRNKKTSSDDVLPVLAPFQLSGPMELWIQDANNMRLSLPYDVDAGVLKKVILADGAVVTVKGARSVSLRHPIDLPLPLNQSSNEFASGLLSLAEQLRRASTDQESPVLSLRIVGPTSLASTSQSPDNKLKLKRLAPGLVELSSMSKDKRSLSTIGANAMTTVLTPREFTTMWPITSINGSNANLLGFEKLLTSVLGPKAQEKGSFKVLKAKVAAQTFMKIGFGIEKKLKEADVEGLSFPEWRTKPETMRMHFEVLAKVDGENVIPENVMRVDPIPLEDTIAQNVITGNVTMSKLPIIESPPSPFTL
For B1, the binding result in test [1] and in test [2] was “binds” each time.

These data come from article doi:10.1101/2022.06.06.495033.
